At least one compound was matched to its structure with a doubt left.
Test: SAXS phase behaviour of hydrated Gem amphiphiles
Type: physicochemical
Settings: equilibration 48 h, 45° C.
Experimental: SAXS analyses of the bulk and lyotropic phases of the amphiphiles were performed on a Bruker NanoSTAR laboratory SAXS instrument (Brucker AXS, Kalsruhe, Germany).
The equilibrated lyotropic phases were placed into a demountable button sample cells. For the analysis of the dispersions, a multi-capillary holder was used. Button cells and capillary holder interchangeably fit into a block setup that was temperature-controlled with a Peltier heater-cooler system. 2D scattering images were radially averaged to conventional 1 D scattering plots and as a function of the q value (Å-1) where q is the length of the scattering vector which was calculated using the formula q=(4π/λ)sin(θ/2), where A is the wavelength and 6 is the scattering angle.
The mesophases formed were determined by indexing peaks using the reflection laws as described by De Campo et al., Langmuir, 2004. 20(13), 5254-5261. Small angle X-ray scattering patterns of emulsions and liposomes display large broad peaks while liquid crystalline phases of highly ordered nanostructured particles such as cubosomes and hexosomes display distinct sharp peaks. […] The interplanar distance (d) between two reflecting planes may be calculated using the formula d=(2π)/q, where q is the absolute position of the peak. This, in turn allows for the calculation of the lattice parameter (a), the size of the unit cell, to be calculated. […]

CCCCCCCC/C=C\CCCCCCCC(=O)OCCOCCOCCOC(=O)Nc1ccn([C@@H]2O[C@H](CO)[C@@H](O)C2(F)F)c(=O)n1 (relative stereo) [Gem-PEG3-oleoyl, 2′-deoxy-2′,2′-difluoro-N4-((((cis-9, octadecenoyl)oxy-triethyleneglycol)oxy)carbonyl) cytidine]
Lyotropic phase lattice parameter: 48..89 ± 0.5 Å

— US12503483B2, “Gemcitabine amphiphile prodrugs” (NANOMED HOLDINGS PTY LTD, priority 2018, dated 2025)
